Measured values published in article PMC11334333.
Read-outs that look alike come from different tables or passages of the source. No constants are given. Whether binding was seen depends on the method and setting. Binding seen in cells or lysates may run through a third protein. A yes stands for co-enrichment or nearness to the bait. Other partners may have been found. Tags and fused reporters may be left off the sequences shown.

Amino acid sequences for entries named in this document (tags omitted). Residues count along the entry.
UniProt O43491: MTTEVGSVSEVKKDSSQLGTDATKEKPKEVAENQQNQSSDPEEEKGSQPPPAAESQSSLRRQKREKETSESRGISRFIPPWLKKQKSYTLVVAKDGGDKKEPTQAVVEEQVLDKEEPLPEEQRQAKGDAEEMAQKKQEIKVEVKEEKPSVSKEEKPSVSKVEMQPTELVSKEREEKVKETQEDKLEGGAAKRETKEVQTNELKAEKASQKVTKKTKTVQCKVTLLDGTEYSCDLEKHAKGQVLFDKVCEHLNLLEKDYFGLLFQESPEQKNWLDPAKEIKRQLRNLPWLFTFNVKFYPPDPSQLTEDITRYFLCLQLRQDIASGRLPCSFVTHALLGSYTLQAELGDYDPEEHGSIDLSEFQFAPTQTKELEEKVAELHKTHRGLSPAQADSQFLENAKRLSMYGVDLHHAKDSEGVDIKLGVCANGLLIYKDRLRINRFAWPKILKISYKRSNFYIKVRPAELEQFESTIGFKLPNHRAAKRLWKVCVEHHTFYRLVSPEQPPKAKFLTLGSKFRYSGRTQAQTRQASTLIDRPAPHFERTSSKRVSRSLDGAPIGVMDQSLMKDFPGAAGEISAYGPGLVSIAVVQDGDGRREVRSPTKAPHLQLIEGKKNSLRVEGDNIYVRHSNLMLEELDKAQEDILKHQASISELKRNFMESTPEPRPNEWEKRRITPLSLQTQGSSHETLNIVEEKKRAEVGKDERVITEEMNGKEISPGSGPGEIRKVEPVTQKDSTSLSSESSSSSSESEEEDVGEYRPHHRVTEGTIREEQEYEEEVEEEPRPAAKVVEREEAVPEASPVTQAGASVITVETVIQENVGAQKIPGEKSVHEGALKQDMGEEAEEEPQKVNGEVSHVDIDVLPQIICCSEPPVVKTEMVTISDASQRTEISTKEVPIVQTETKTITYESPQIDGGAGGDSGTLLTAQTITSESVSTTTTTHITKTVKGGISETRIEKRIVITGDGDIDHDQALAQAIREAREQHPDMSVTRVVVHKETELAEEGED
UniProt Q9Y2J2: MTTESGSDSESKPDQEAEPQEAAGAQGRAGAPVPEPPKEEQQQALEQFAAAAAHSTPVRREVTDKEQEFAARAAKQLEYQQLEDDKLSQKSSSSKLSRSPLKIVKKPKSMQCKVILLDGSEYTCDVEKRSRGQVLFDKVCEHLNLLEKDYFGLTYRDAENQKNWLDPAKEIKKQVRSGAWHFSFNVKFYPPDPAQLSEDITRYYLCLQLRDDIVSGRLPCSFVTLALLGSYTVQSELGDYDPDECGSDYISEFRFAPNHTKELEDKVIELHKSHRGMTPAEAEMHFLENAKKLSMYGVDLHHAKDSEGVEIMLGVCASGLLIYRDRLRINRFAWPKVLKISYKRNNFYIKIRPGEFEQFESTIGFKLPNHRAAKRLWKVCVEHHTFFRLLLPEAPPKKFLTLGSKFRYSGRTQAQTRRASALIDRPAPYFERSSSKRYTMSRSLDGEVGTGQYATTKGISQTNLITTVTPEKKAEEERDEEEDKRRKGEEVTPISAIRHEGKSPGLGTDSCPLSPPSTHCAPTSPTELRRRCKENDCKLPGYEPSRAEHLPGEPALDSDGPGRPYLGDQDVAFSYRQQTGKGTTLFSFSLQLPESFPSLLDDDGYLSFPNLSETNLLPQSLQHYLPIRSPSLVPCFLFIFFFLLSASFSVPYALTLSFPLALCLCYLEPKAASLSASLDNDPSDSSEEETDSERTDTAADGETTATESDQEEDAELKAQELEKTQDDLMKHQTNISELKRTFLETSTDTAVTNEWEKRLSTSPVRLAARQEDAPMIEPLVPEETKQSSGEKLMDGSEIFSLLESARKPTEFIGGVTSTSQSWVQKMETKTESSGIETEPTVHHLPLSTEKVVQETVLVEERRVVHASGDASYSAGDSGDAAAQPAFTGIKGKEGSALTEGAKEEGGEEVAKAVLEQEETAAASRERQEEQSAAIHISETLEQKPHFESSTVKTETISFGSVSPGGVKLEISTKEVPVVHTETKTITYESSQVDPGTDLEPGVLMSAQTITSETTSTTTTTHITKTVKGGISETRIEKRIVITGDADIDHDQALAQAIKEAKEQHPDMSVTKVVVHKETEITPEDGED
UniProt Q14126, residues 50-1118: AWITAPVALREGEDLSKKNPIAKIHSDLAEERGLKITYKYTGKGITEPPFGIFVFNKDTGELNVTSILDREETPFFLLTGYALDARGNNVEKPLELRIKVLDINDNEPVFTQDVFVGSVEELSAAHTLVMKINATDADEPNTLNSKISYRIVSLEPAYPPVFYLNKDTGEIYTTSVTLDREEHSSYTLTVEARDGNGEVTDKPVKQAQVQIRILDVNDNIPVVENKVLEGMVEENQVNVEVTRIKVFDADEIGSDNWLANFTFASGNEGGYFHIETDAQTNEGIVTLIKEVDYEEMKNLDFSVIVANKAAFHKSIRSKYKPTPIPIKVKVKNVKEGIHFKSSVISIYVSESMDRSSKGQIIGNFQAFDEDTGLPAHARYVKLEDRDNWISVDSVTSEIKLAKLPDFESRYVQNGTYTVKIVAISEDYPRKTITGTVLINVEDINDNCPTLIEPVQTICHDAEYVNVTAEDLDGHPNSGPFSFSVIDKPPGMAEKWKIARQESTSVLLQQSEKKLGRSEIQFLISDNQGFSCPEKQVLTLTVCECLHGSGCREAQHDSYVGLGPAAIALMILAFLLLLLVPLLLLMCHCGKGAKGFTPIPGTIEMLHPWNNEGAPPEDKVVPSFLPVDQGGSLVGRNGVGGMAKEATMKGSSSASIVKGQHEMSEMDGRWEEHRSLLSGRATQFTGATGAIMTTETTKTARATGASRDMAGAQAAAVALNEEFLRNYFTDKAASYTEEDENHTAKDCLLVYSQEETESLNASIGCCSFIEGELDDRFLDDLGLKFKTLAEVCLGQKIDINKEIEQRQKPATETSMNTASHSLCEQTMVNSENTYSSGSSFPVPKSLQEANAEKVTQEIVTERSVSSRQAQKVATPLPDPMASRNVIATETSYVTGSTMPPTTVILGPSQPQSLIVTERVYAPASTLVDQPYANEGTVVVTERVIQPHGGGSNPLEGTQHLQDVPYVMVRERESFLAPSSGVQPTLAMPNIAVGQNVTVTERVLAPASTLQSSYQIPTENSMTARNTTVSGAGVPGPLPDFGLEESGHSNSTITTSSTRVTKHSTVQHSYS

Legend:
Test in all cases: proximity labelling; APEX2 proximity biotinylation in transfected HEK293 cells (500 μM biotin tyramide 1 h, 1 mM H2O2 1 min); streptavidin beads; LC MS/MS with label-free quantitation in triplicate; data of the three constructs with a.a. 414–630 grouped and compared with controls lacking that …
[1] = molecular target: T1, TMEM24(1–666)-APEX2-eGFP (human) (UniProt O14523)
T1 sequence: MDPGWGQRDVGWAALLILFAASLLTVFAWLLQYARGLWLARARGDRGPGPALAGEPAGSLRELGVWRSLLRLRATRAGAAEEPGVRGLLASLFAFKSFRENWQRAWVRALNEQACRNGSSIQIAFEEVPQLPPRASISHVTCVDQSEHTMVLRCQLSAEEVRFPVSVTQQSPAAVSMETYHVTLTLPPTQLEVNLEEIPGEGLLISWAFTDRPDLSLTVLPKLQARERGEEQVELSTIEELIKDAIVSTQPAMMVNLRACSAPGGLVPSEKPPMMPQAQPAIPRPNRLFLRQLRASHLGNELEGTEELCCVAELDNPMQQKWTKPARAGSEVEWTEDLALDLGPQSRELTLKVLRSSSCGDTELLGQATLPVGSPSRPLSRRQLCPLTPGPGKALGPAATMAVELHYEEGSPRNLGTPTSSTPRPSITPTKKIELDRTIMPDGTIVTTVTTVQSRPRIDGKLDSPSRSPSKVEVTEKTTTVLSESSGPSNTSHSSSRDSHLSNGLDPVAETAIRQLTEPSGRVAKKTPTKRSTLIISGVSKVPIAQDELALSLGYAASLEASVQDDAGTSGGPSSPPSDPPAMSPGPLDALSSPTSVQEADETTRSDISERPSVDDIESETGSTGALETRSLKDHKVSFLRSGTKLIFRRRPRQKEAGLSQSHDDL

[2] = molecular target: T2, TMEM24-APEX2-eGFP (human) (UniProt O14523)
T2 sequence: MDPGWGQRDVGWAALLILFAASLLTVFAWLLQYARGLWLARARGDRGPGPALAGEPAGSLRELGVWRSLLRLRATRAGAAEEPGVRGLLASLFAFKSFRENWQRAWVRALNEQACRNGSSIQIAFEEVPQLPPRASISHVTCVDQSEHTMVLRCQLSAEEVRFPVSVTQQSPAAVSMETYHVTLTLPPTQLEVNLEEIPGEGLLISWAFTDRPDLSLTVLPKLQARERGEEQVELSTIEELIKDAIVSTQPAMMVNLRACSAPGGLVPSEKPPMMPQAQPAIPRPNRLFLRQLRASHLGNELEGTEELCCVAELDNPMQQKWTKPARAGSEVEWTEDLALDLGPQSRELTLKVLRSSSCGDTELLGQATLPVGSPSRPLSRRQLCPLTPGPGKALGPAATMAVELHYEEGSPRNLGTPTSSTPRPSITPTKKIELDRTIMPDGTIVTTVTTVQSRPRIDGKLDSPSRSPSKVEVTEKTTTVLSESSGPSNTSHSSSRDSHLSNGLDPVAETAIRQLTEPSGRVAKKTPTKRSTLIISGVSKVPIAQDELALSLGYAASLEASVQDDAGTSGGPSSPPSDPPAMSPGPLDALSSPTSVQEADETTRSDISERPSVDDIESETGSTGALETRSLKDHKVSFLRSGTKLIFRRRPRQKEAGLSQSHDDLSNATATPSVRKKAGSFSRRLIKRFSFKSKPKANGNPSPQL

[3] = molecular target: T3, TMEM24(1–630)-APEX2-eGFP (human) (UniProt O14523)
T3 sequence: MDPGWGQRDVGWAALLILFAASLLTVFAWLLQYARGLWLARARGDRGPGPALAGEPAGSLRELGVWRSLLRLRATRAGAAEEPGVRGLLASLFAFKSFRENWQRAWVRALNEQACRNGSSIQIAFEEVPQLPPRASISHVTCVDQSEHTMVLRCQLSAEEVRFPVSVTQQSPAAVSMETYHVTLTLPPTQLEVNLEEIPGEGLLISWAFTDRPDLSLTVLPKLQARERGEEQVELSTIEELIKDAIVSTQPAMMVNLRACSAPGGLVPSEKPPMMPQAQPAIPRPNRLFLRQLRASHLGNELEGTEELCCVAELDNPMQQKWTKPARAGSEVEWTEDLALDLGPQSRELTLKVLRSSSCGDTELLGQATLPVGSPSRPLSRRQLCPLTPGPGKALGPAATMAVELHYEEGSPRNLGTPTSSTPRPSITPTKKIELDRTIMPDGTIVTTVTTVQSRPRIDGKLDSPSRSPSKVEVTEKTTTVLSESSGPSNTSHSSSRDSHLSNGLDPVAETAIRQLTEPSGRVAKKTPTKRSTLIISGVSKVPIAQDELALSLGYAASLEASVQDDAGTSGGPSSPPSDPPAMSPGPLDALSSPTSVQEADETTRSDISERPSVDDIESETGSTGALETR

[4] = molecular target: T1, TMEM24(1–666)-APEX2-eGFP (human); remark: listed apart in the source
[5] = molecular target: T2, TMEM24-APEX2-eGFP (human); remark: listed apart in the source
[6] = molecular target: T3, TMEM24(1–630)-APEX2-eGFP (human); remark: listed apart in the source

Measured: binding

4.1G (endogenous) (from UniProt O43491 1-1005)
binds: [1] | [2] | [3]

4.1B (endogenous) (from UniProt Q9Y2J2 1-1087)
binds: [1] | [2] | [3]

desmoglien-2 (DSG-2) (from UniProt Q14126 50-1118)
binds: [1] | [2] | [3]

B1: MPP1 (protein, UniProt Q00013 1-466)
chain: MTLKASEGESGGSMHTALSDLYLEHLLQKRSRPEAVSHPLNTVTEDMYTNGSPAPGSPAQVKGQEVRKVRLIQFEKVTEEPMGITLKLNEKQSCTVARILHGGMIHRQGSLHVGDEILEINGTNVTNHSVDQLQKAMKETKGMISLKVIPNQQSRLPALQMFMRAQFDYDPKKDNLIPCKEAGLKFATGDIIQIINKDDSNWWQGRVEGSSKESAGLIPSPELQEWRVASMAQSAPSEAPSCSPFGKKKKYKDKYLAKHSSIFDQLDVVSYEEVVRLPAFKRKTLVLIGASGVGRSHIKNALLSQNPEKFVYPVPYTTRPPRKSEEDGKEYHFISTEEMTRNISANEFLEFGSYQGNMFGTKFETVHQIHKQNKIAILDIEPQTLKIVRTAELSPFIVFIAPTDQGTQTEALQQLQKDSEAIRSQYAHYFDLSLVNNGVDETLKKLQEAFDQACSSPQWVPVSWVY
binds: [4] | [5] | [6]
